# In the supplement of paper PMC8728848:
# The list shows a part of the results.
# How the values were obtained:
# Experiment in all cases: glycan array binding signal (z-score within array); higher = stronger binding
# Details in all cases: glycan notation: IUPAC condensed, linker removed
# [1] = biological target: Neu5Ac(a2-3)Gal(b1-4)GlcNAc(b1-2)[Neu5Ac(a2-3)Gal(b1-4)GlcNAc(b1-4)]Man(a1-3)[GlcNAc(b1-4)][Neu5Ac(a2-3)Gal(b1-4)GlcNAc(b1-2)[Neu5Ac(a2-3)Gal(b1-4)GlcNAc(b1-6)]Man(a1-6)]Man(b1-4)GlcNAc(b1-4)GlcNAc
# Procedure, shortened: (§1)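 Negative Z-scores can be read as non-binding. The Z-score is calculated within each array and then averaged across arrays of one protein sequence at different concentrations or buffers and across linkers. Arrays, 3228 in all, were curated from the Consortium for Functional Glycomics database and kept only where the protein sequence was available.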
# [2] = biological target: Neu5Ac(a2-3)Gal(b1-4)GlcNAc(b1-2)[Neu5Ac(a2-3)Gal(b1-4)GlcNAc(b1-4)]Man(a1-3)[GlcNAc(b1-4)][Neu5Ac(a2-3)Gal(b1-4)GlcNAc(b1-4)Man(a1-6)]Man(b1-4)GlcNAc(b1-4)GlcNAc
# Procedure, shortened: as §1
# [3] = biological target: Neu5Ac(a2-3)Gal(b1-4)GlcNAc(b1-2)[Neu5Ac(a2-3)Gal(b1-4)GlcNAc(b1-6)]Man(a1-6)[Neu5Ac(a2-3)Gal(b1-4)GlcNAc(b1-2)Man(a1-3)][GlcNAc(b1-4)]Man(b1-4)GlcNAc(b1-4)GlcNAc
# Procedure, shortened: as §1
# [4] = biological target: Neu5Ac(a2-3)Gal(b1-4)GlcNAc(b1-3)Gal
# Procedure, shortened: as §1
# [5] = biological target: Neu5Ac(a2-3)Gal(b1-4)GlcNAc(b1-3)Gal(b1-3)GlcNAc
# Procedure, shortened: as §1
# [6] = biological target: Neu5Ac(a2-3)Gal(b1-4)GlcNAc(b1-3)Gal(b1-4)GlcNAc
# Procedure, shortened: as §1
# [7] = biological target: Neu5Ac(a2-3)Gal(b1-4)GlcNAc(b1-3)Gal(b1-4)GlcNAc(b1-2)Man(a1-3)[Neu5Ac(a2-3)Gal(b1-4)GlcNAc(b1-3)Gal(b1-4)GlcNAc(b1-2)Man(a1-6)]Man(b1-4)GlcNAc(b1-4)GlcNAc
# Procedure, shortened: as §1
# [8] = biological target: Neu5Ac(a2-3)Gal(b1-4)GlcNAc(b1-3)Gal(b1-4)GlcNAc(b1-3)Gal(b1-4)GlcNAc
# Procedure, shortened: as §1
# [9] = biological target: Neu5Ac(a2-3)Gal(b1-4)GlcNAc(b1-3)Gal(b1-4)GlcNAc(b1-3)Gal(b1-4)GlcNAc(b1-2)Man(a1-3)[Neu5Ac(a2-3)Gal(b1-4)GlcNAc(b1-3)Gal(b1-4)GlcNAc(b1-3)Gal(b1-4)GlcNAc(b1-2)Man(a1-6)]GalNAc
# Procedure, shortened: as §1
# [10] = biological target: Neu5Ac(a2-3)Gal(b1-4)GlcNAc(b1-3)Gal(b1-4)GlcNAc(b1-3)GalNAc
# Procedure, shortened: as §1
# [11] = biological target: Neu5Ac(a2-3)Gal(b1-4)GlcNAc(b1-3)Gal(b1-4)GlcNAc(b1-3)[Neu5Ac(a2-3)Gal(b1-4)GlcNAc(b1-3)Gal(b1-4)GlcNAc(b1-6)]GalNAc
# Procedure, shortened: as §1
# [12] = biological target: Neu5Ac(a2-3)Gal(b1-4)GlcNAc(b1-3)Gal(b1-4)GlcNAc(b1-6)[Gal(b1-3)]GalNAc
# Procedure, shortened: as §1
# [13] = biological target: Neu5Ac(a2-3)Gal(b1-4)GlcNAc(b1-3)Gal(b1-4)[Fuc(a1-3)]GlcNAc
# Procedure, shortened: as §1
# [14] = biological target: Neu5Ac(a2-3)Gal(b1-4)GlcNAc(b1-3)GalNAc
# Procedure, shortened: as §1
# [15] = biological target: Neu5Ac(a2-3)Gal(b1-4)GlcNAc(b1-3)[Neu5Ac(a2-3)Gal(b1-4)GlcNAc(b1-6)]GalNAc
# Procedure, shortened: as §1
# [16] = biological target: Neu5Ac(a2-3)Gal(b1-4)GlcNAc(b1-6)GalNAc
# Procedure, shortened: as §1
# [17] = biological target: Neu5Ac(a2-3)Gal(b1-4)GlcNAc(b1-6)[Gal(b1-3)]GalNAc
# Procedure, shortened: as §1
# [18] = biological target: Neu5Ac(a2-3)Gal(b1-4)GlcNAc(b1-6)[Neu5Ac(a2-3)Gal(b1-3)]GalNAc
# Procedure, shortened: as §1
# [19] = biological target: Neu5Ac(a2-3)Gal(b1-4)GlcNAc6S
# Procedure, shortened: as §1
# [20] = biological target: Neu5Ac(a2-3)Gal(b1-4)[Fuc(a1-3)]GlcNAc
# Procedure, shortened: as §1
# [21] = biological target: Neu5Ac(a2-3)Gal(b1-4)[Fuc(a1-3)]GlcNAc(b1-2)Man
# Procedure, shortened: as §1
# [22] = biological target: Neu5Ac(a2-3)Gal(b1-4)[Fuc(a1-3)]GlcNAc(b1-3)Gal
# Procedure, shortened: as §1
# [23] = biological target: Neu5Ac(a2-3)Gal(b1-4)[Fuc(a1-3)]GlcNAc(b1-3)Gal(b1-4)GlcNAc
# Procedure, shortened: as §1
# [24] = biological target: Neu5Ac(a2-3)Gal(b1-4)[Fuc(a1-3)]GlcNAc(b1-3)Gal(b1-4)[Fuc(a1-3)]GlcNAc(b1-3)Gal(b1-4)[Fuc(a1-3)]GlcNAc
# Procedure, shortened: as §1
# [25] = biological target: Neu5Ac(a2-3)Gal(b1-4)[Fuc(a1-3)]GlcNAc(b1-3)GalNAc
# Procedure, shortened: as §1
# [26] = biological target: Neu5Ac(a2-3)Gal(b1-4)[Fuc(a1-3)]GlcNAc(b1-6)[Gal(b1-3)]GalNAc
# Procedure, shortened: as §1
# [27] = biological target: Neu5Ac(a2-3)Gal(b1-4)[Fuc(a1-3)]GlcNAc(b1-6)[Neu5Ac(a2-3)Gal(b1-3)]GalNAc
# Procedure, shortened: as §1
# [28] = biological target: Neu5Ac(a2-3)Gal(b1-4)[Fuc(a1-3)]GlcNAc6S
# Procedure, shortened: as §1
# [29] = biological target: Neu5Ac(a2-3)Gal6S(b1-4)GlcNAc
# Procedure, shortened: as §1
# [30] = biological target: Neu5Ac(a2-3)Gal6S(b1-4)[Fuc(a1-3)]GlcNAc
# Procedure, shortened: as §1
# Neu5Ac(a2-3)GalNAc = biological target: Neu5Ac(a2-3)GalNAc
# Procedure, shortened: as §1
# [31] = biological target: Neu5Ac(a2-3)GalNAc(b1-4)GlcNAc
# Procedure, shortened: as §1
# [32] = biological target: Neu5Ac(a2-3)[GalNAc(b1-4)]Gal(b1-4)Glc
# Procedure, shortened: as §1
# [33] = biological target: Neu5Ac(a2-3)[GalNAc(b1-4)]Gal(b1-4)GlcNAc
# Procedure, shortened: as §1
# [34] = biological target: Neu5Ac(a2-3)[GalNAc(b1-4)]Gal(b1-4)GlcNAc(b1-3)GalNAc
# Procedure, shortened: as §1
# [35] = biological target: Neu5Ac(a2-3)[Neu5Ac(a2-6)]GalNAc
# Procedure, shortened: as §1
# Neu5Ac(a2-6)Gal = biological target: Neu5Ac(a2-6)Gal
# Procedure, shortened: as §1
# [36] = biological target: Neu5Ac(a2-6)Gal(b1-3)GlcNAc(b1-3)[Gal(b1-4)GlcNAc(b1-6)]Gal(b1-4)Glc
# Procedure, shortened: as §1
# Neu5Ac(a2-6)Gal(b1-4)Glc = biological target: Neu5Ac(a2-6)Gal(b1-4)Glc
# Procedure, shortened: as §1
# [37] = biological target: Neu5Ac(a2-6)Gal(b1-4)GlcNAc
# Procedure, shortened: as §1
# [38] = biological target: Neu5Ac(a2-6)Gal(b1-4)GlcNAc(b1-2)Man
# Procedure, shortened: as §1
# [39] = biological target: Neu5Ac(a2-6)Gal(b1-4)GlcNAc(b1-2)Man(a1-3)Man(b1-4)GlcNAc(b1-4)GlcNAc
# Procedure, shortened: as §1
# [40] = biological target: Neu5Ac(a2-6)Gal(b1-4)GlcNAc(b1-2)Man(a1-3)[Gal(b1-4)GlcNAc(b1-2)Man(a1-6)]Man(b1-4)GlcNAc(b1-4)GlcNAc
# Procedure, shortened: as §1
# [41] = biological target: Neu5Ac(a2-6)Gal(b1-4)GlcNAc(b1-2)Man(a1-3)[GlcNAc(b1-2)Man(a1-6)]Man(b1-4)GlcNAc(b1-4)GlcNAc
# Procedure, shortened: as §1
# [42] = biological target: Neu5Ac(a2-6)Gal(b1-4)GlcNAc(b1-2)Man(a1-3)[GlcNAc(b1-4)][Neu5Ac(a2-6)Gal(b1-4)GlcNAc(b1-2)Man(a1-6)]Man(b1-4)GlcNAc(b1-4)GlcNAc
# Procedure, shortened: as §1
binder,measurement,setting,value
LlpB (Pseudomonas fluorescens) (protein) MGSSHHHHHHSSGLVPRGSHMASSGFRIILFNSANNGTAILPPRNCLVAGQYLESPSKRYKLILEADGNLRLYDNGVPIWVADSSVPYTYVDNRPNTNLVTCFYMQGSAFLVDRVGSRTWATIGDWIDGAADRAYLQVQDDGNVVVVDGVPRWARFGFTPAALPNRGVFYPDHGTGPLPSFPVWSWTF,glycan array binding signal (z-score),[1],1.21
same,glycan array binding signal (z-score),[2],0.344
same,glycan array binding signal (z-score),[3],-0.505
same,glycan array binding signal (z-score),[4],-0.928
same,glycan array binding signal (z-score),[5],-0.735
same,glycan array binding signal (z-score),[6],0.106
same,glycan array binding signal (z-score),[7],0.657
same,glycan array binding signal (z-score),[8],-1.21
same,glycan array binding signal (z-score),[9],0.512
same,glycan array binding signal (z-score),[10],-0.006
same,glycan array binding signal (z-score),[11],-0.12
same,glycan array binding signal (z-score),[12],-0.141
same,glycan array binding signal (z-score),[13],-1.33
same,glycan array binding signal (z-score),[14],-0.794
same,glycan array binding signal (z-score),[15],-0.411
same,glycan array binding signal (z-score),[16],1.64
same,glycan array binding signal (z-score),[17],0.321
same,glycan array binding signal (z-score),[18],-0.463
same,glycan array binding signal (z-score),[19],-1.53
same,glycan array binding signal (z-score),[20],-0.889
same,glycan array binding signal (z-score),[21],-0.176
same,glycan array binding signal (z-score),[22],-0.814
same,glycan array binding signal (z-score),[23],1.96
same,glycan array binding signal (z-score),[24],-0.145
same,glycan array binding signal (z-score),[25],0.993
same,glycan array binding signal (z-score),[26],1.93
same,glycan array binding signal (z-score),[27],-0.241
same,glycan array binding signal (z-score),[28],0.242
same,glycan array binding signal (z-score),[29],-0.815
same,glycan array binding signal (z-score),[30],-0.378
same,glycan array binding signal (z-score),Neu5Ac(a2-3)GalNAc,-0.197
same,glycan array binding signal (z-score),[31],-0.114
same,glycan array binding signal (z-score),[32],-1.61
same,glycan array binding signal (z-score),[33],-0.496
same,glycan array binding signal (z-score),[34],0.621
same,glycan array binding signal (z-score),[35],-0.595
same,glycan array binding signal (z-score),Neu5Ac(a2-6)Gal,0.15
same,glycan array binding signal (z-score),[36],-1.43
same,glycan array binding signal (z-score),Neu5Ac(a2-6)Gal(b1-4)Glc,-0.182
same,glycan array binding signal (z-score),[37],-1.02
same,glycan array binding signal (z-score),[38],-0.792
same,glycan array binding signal (z-score),[39],1.2
same,glycan array binding signal (z-score),[40],-1.22
same,glycan array binding signal (z-score),[41],-0.285
same,glycan array binding signal (z-score),[42],-1.33

# Two records picked at random from the list so far:
binder,measurement,setting,value
LlpB (Pseudomonas fluorescens) (protein) MGSSHHHHHHSSGLVPRGSHMASSGFRIILFNSANNGTAILPPRNCLVAGQYLESPSKRYKLILEADGNLRLYDNGVPIWVADSSVPYTYVDNRPNTNLVTCFYMQGSAFLVDRVGSRTWATIGDWIDGAADRAYLQVQDDGNVVVVDGVPRWARFGFTPAALPNRGVFYPDHGTGPLPSFPVWSWTF,glycan array binding signal (z-score),[9],0.512
same,glycan array binding signal (z-score),[39],1.2
